The campaign covered roughly 1,400 compounds. About 140 (10%) were called active.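 Rule for the calls: active = Half-maximal inhibitory dose from the fit at or below ten times the top valid tested dose; inconclusive = Invalid fit, or flat curve showing 30 to 70% inhibition; inactive = the rest.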 The list shows a part of the results, in another mix than the full data. Entries with a potency or affinity are not part of this list.

By UniProt entry, the sequences of proteins in these tests, tags left out. Residues count along the entry.
UniProt Q9H3R0, 1-420 limits assumed: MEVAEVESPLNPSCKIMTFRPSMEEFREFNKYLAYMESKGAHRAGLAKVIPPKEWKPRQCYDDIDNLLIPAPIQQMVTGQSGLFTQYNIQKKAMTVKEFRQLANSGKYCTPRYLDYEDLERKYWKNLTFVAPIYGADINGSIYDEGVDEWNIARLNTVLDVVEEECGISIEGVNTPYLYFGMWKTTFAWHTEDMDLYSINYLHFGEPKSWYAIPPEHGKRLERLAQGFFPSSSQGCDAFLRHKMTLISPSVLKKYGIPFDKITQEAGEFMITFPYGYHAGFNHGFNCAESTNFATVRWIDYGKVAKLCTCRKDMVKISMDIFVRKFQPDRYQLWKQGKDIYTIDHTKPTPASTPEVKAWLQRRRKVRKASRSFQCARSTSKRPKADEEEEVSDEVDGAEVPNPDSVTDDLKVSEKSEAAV

The assay concerns the target Lysine-specific demethylase 4C (Homo sapiens) (UniProt Q9H3R0). The assay can be described thus: inhibition of JMJD2C H3K9me3 demethylation – biochemical, DELFIA europium, cherry-picked samples, dose response (AID 488835).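 Note: signal is the H3K9me2 demethylation product detected by a dimethyl-specific antibody.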 Particulars: GST-JMJD2C(1-420); at 6 µM (top of the series) unless noted.
As to `Cc1cc(Cl)ccc1OCc1nc(-c2ccncc2)no1`, the activity change, negative = inhibition is inactive: 7.77%. `CC(C)(C)n1ncc2c(=O)n(Cc3ccccc3Br)cnc21`: the activity change, negative = inhibition is inactive: -1.56%.

Take `COc1ccc(/C=C2/CC/C(=C\c3ccc(OC)c(OC)c3OC)C2=O)c(OC)c1OC`: the activity change, negative = inhibition is inactive: -0.573%. In the case of `CCOC(=O)N1CCN(C(=S)NC(=O)c2ccc(F)cc2)CC1`, the activity change, negative = inhibition was inactive: -2.89%. On to `Oc1ccc(Br)cc1/C=N/Nc1nc(N2CCCCC2)nc(N2CCOCC2)n1`, for which the activity change, negative = inhibition is inactive: 12.4%.

With `C=CCn1c(O)c(N=Nc2ccccc2C)c2ccccc21`, the activity change, negative = inhibition was inactive: -0.66%. On to `Cc1ccc(S(=O)(=O)NCCC(=O)Oc2ccc3ccc(=O)oc3c2)cc1`, for which the activity change, negative = inhibition is inactive: -3.91%. Consider `COc1ccc(/C=N/N=C2\CC3CCC2(C)C3(C)C)cc1O` (stereo not given), for which the activity change, negative = inhibition was inactive: 2.55%. For `Cc1ccc(C)c(N2CCN(C(=O)Cn3ncc4c([nH]c5ccc(C)cc54)c3=O)CC2)c1`, the activity change, negative = inhibition is inactive: 2.38%. As for `COc1cc(OC)cc(C(=O)Nc2ccc(-n3cnnn3)c(C)c2)c1`, the activity change, negative = inhibition was inactive: 4.84%. Turning to `Cc1c(Cl)c(-c2n[nH]c(=S)n2-c2ccc(F)cc2)nn1C`, the activity change, negative = inhibition is inactive: 17.3%. Regarding `CC(C)Cn1c(N)c(C(=O)COC(=O)c2c(O)c(Cl)cc(Cl)c2Cl)c(=O)n(C)c1=O`, the activity change, negative = inhibition was inactive: 13.9%.

For `O=c1oc2ccccc2cc1-c1nc(-c2cccs2)cs1`, the activity change, negative = inhibition was inactive: -0.974% [at 1.6 µM].

On to `CS(=O)(=O)N(CC(=O)Nc1ccccc1C(=O)NCCc1ccccc1)c1ccc2c(c1)OCCO2`, for which the activity change, negative = inhibition is inactive: -4.8%. For `OCc1csc(=Nc2ccccc2)n1-c1ccccc1` the value was inactive: -7.27%. With `COC(=O)[C@]1(Cc2ccccc2)N[C@H](CN(C)S(=O)(=O)c2ccc(-c3ccccc3)cc2)[C@@H]2C(=O)N(C)C(=O)[C@@H]21` the figure was inactive: -2.33%; with `CCC(C)(C)NC(=O)C(c1ccc(C)o1)N(Cc1cccs1)C(=O)Cn1nnc2ccccc21` (stereo not given), inactive: -2.77%.

`Cc1nnc(SCC(=O)Nc2sccc2C(N)=O)n1Cc1ccccc1`: the activity change, negative = inhibition is inactive: -10.5%.

Consider `Cc1cc2cc3c(cc2nc1SCC(=O)N1CCOCC1)OCO3`, for which the activity change, negative = inhibition is inactive: 3.16%.

Take `CCn1c(SCC(=O)Nc2nc(C)cs2)nnc1-c1ccncc1`: the activity change, negative = inhibition was inactive: 3.16%. With `Cc1cccc(NC(=O)/C(=C\c2ccc([N+](=O)[O-])o2)NC(=O)c2ccc(Cl)cc2)c1`, the activity change, negative = inhibition is inactive: -5.59%. As for `CCC(=O)N1c2ccc(S(=O)(=O)CCC(=O)NCCC3=CCCCC3)cc2CC1C` (stereo not given), the activity change, negative = inhibition is inactive: -5.61%. For `CCOC(=O)CCCCCC(=O)Nc1ccc2c(c1)CC(=O)N([C@@H](C)CO)C[C@H](C)[C@@H](CN(C)C(=O)Nc1ccc3c(c1)OCO3)O2` the value was inactive: -7.35%; for `COC(=O)[C@]1(C)N[C@H](CN(C)C(=O)NC(C)C)[C@@H]2C(=O)N(Cc3ccccc3)C(=O)[C@@H]21`, inactive: 0.422%; for `N#CC1=C(C2CC2)CC(c2ccccc2)C(C#N)=C1N` (stereo not given), inactive: 0.542%.

In the case of `C/C(=N\NC(=S)NCc1ccccc1)c1ccco1`, the activity change, negative = inhibition is inactive: 4.47%. In the case of `CCN(CC)C(=O)[C@H]1CC(CC(=O)NC/C=C(\C)CCC=C(C)C)C(=O)N2CCc3c([nH]c4ccccc34)[C@]12C` (stereo not given in full), the activity change, negative = inhibition was inactive: -7.06%.

Take `Cn1c(SCC(=O)N2CCCC2=O)nnc1-c1ccccc1F`: the activity change, negative = inhibition is inactive: -9.87%. Turning to `Cc1ccc(OCCSc2nnc(-c3cccs3)n2C)cc1`, the activity change, negative = inhibition is inactive: 6.27%.

As for `Cc1nc2nc(C)c(CCC(=O)NCc3ccc4c(c3)OCO4)c(C)n2n1`, the activity change, negative = inhibition was inactive: -7.32%. Consider `COC(=O)COc1ccc(Oc2cc(C)nc(SC)n2)nn1`, for which the activity change, negative = inhibition is inactive: 0.0464%. Turning to `CC[C@]12c3[nH]c4ccccc4c3CCN1C(=O)C(CC(=O)NCCCOC)C[C@@H]2C(=O)N1CCN(C(=O)C2CC2)CC1` (stereo not given in full), the activity change, negative = inhibition is inactive: 5.84%. On to `CN1CCC[C@H]1CCNC(=O)c1c(-c2ccsc2)sc2ccccc12`, for which the activity change, negative = inhibition was inactive: 0.336%. In the case of `COc1ccc(C(=O)N2CCCC(c3nc(-c4ccc(OC)c(OC)c4)no3)C2)c(OC)c1` (stereo not given), the activity change, negative = inhibition was inactive: 7.3%. With `C[C@H](CO)N1C[C@H](C)[C@@H](CN(C)C(=O)Nc2ccc(C(F)(F)F)cc2)Oc2c(cccc2N(C)C)C1=O` the figure was inactive: 5.89%; with `Cc1onc(-c2c(F)cccc2Cl)c1C(=O)NC1CC1`, inactive: -4.82%; with `O=[N+]([O-])c1cc(-c2cnc3ccccc3n2)ccc1Oc1ccc(F)cc1`, inactive: -2.01%. Turning to `Cc1cccn2c(=O)c3cc(C(=O)NCCN4CCOCC4)c(=N)n(CCc4ccccc4)c3nc12`, the activity change, negative = inhibition was inactive: -4.39%. For the molecule `Cc1ccc(S(=O)(=O)NC(=O)NCc2ccc(Cl)cc2)cc1`, the activity change, negative = inhibition was inactive: 2.2%.

Turning to `Cc1cccc(C2=N/C(=C\c3cccnc3)C(=O)O2)c1`, the activity change, negative = inhibition is inactive: 0.125%.

As for `CCN1CCC(=NNC(=O)c2ccc(C)c([N+](=O)[O-])c2)CC1`, the activity change, negative = inhibition is inactive: 1.68%. With `CCOc1cc(CN2CCN(CCc3ccccc3)C(CCO)C2)ccc1OC` (stereo not given), the activity change, negative = inhibition is inactive: 4.52%. Take `N#CC(=C1CCCC1)c1nc(-c2ccccc2)cs1`: the activity change, negative = inhibition is inactive: -4.71%.

Consider `O=C(CSc1nnnn1-c1ccc(Cl)cc1)N1CCc2ccccc2C1`, for which the activity change, negative = inhibition was inactive: -2.61% [at 1.6 µM]. With `CCOc1ccc(-c2c(C#N)c(N)nc3c2c(=O)n(C)c(=O)n3C)cc1OC`, the activity change, negative = inhibition was inactive: -0.465% [at 1.6 µM]. With `COc1ccc(-c2nnc(SC(C)C(=O)NCc3ccc4c(c3)OCO4)n2Cc2ccco2)cc1` (stereo not given), the activity change, negative = inhibition is inactive: -2.31%. With `CCN1C(=O)C(C(=O)Nc2ccc(OC)cc2)C2CC1(C)Oc1ccccc12` (stereo not given), the activity change, negative = inhibition was inactive: 4.42%. On to `Cc1cc(OC(=O)c2c(C)cc(OC(=O)c3c(C)cc(O)cc3O)cc2O)cc(O)c1C(=O)O`, for which the activity change, negative = inhibition is inactive: -3.02%.

Consider `CCOC(=O)N1CCC(c2nc3ccccc3[nH]2)CC1`, for which the activity change, negative = inhibition is inactive: 4.41%. As to `CC(C)CCn1c(NCCN(C)C)nc2c1c(=O)[nH]c(=O)n2C`, the activity change, negative = inhibition was inactive: 1.91%.

As to `O=c1oc(C2(O)CCCCC2)cc2ccccc12`, the activity change, negative = inhibition was inactive: 1.2%. As for `CCCCOc1ccc(C(=O)Nc2ccc(N3CCN(C(C)=O)CC3)cc2)cc1`, the activity change, negative = inhibition was inactive: 12.3%. Consider `Cc1[nH]c2ccccc2c1-c1ccc(Cl)nn1`, for which the activity change, negative = inhibition was inactive: 7.91%. For `Clc1ccccc1Cn1nnc2c(NCCN3CCOCC3)ncnc21` the value was inactive: -4.09%; for `CCc1ccc(-c2nnn(Cc3nn[nH]n3)n2)cc1`, inactive: 1.52%. For `CC(C)CNC(=O)c1ccc(NC(=O)c2cccs2)cc1` the value was inactive: 0.895%; for `CCOc1cc(/C=N/NC(=O)C(=O)N/N=C/c2ccc(O)c(OCC)c2)ccc1O`, inactive: -5.54%. As to `CCS(=O)(=O)N1CCN(c2ccc([N+](=O)[O-])c(N3CCOCC3)c2)CC1`, the activity change, negative = inhibition is inactive: 8.83%.

In the case of `O=C(NS(=O)(=O)c1ccc2c(c1)OCCO2)c1ccccc1`, the activity change, negative = inhibition is inactive: -13.5%. Regarding `CC(=O)C[C@H](O)CC(=O)[C@H]1OC(=O)[C@H](C)CCCCc2ccccc21`, the activity change, negative = inhibition was inactive: -2.76%.

For `CCOC(=O)c1ccc2c(c1)nc(COc1ccc3ccccc3c1)n2CC`, the activity change, negative = inhibition was inactive: -2.46%.

For `C[C@@H](NC(=O)Cn1cnc2c(OCc3ccccc3)ncnc21)c1cccc2ccccc12`, the activity change, negative = inhibition was inactive: 3.9%. For `C#CCNC(=O)C1=C[C@@H](c2ccc(C(F)(F)F)cc2)C[C@@H](OCCCCO)O1` the value was inactive: 6.13%. Take `O=C(NCc1nnc(SCC(=O)N2CCCC2)o1)c1ccccc1F`: the activity change, negative = inhibition was inactive: 7.1%. In the case of `Cc1cc(NC(=O)Nc2c[nH]c(=O)[nH]c2=O)ccc1Br`, the activity change, negative = inhibition was inactive: -1%. For `CCn1c(O)c(N=NC2=NC(=O)CS2)c2ccccc21` the value was inactive: 0.856%. On to `COc1ccc(NC(=O)N(C)C[C@H]2Oc3ccc(NC(=O)CCN4CCOCC4)cc3C(=O)N([C@H](C)CO)C[C@@H]2C)cc1`, for which the activity change, negative = inhibition was inactive: -0.451%. In the case of `Cc1ccc(S(=O)(=O)N2CCOCC2)cc1NC(=O)COC(=O)c1cc(=O)[nH]c2ccccc12`, the activity change, negative = inhibition is inactive: -7.07%. For `CCCCN1CC[C@H]2C=CC[C@@H](C(=O)Nc3ccc(OC)cc3)[C@H]2C1=O`, the activity change, negative = inhibition is inactive: 8.42%. For `COc1ccccc1CNC(=O)COc1ccc(S(=O)(=O)N2CCOCC2)cc1C` the value was inactive: -1.32%; for `Cc1ccc(/C(N)=N/OC(=O)CCC2CCCCC2)cc1`, inactive: 2.9%; for `CCN(CC)C(=O)[C@H]1CC(CC(=O)NCc2cccc(C(F)(F)F)c2)C(=O)N2CCc3c([nH]c4ccccc34)[C@]12C` (stereo not given in full), inactive: -2.44%. Consider `CCNC(=O)c1ccc2c(c1)S(=O)(=O)c1ccccc1C2=O`, for which the activity change, negative = inhibition was inactive: -10.2%. For `COc1ccc(S(=O)(=O)Nc2ccc3c(c2)CC(=O)N([C@@H](C)CO)C[C@H](C)[C@@H](CN(C)S(=O)(=O)c2ccc(F)cc2)O3)cc1` the value was inactive: -9.86%.

Turning to `N=C1C(c2nc3ccccc3s2)=C(O)CN1Cc1ccccc1`, the activity change, negative = inhibition is inactive: -5.43%.

Consider `COc1ccc(/C=N/NS(=O)(=O)c2ccc(NC(C)=O)cc2)cc1`, for which the activity change, negative = inhibition is inactive: 2.82%. With `COc1cc([N+](=O)[O-])ccc1NC(=O)CSc1nccn1C`, the activity change, negative = inhibition is inactive: 9.26%. On to `Cc1cccc(NCc2ccc(O)c3ncccc23)c1`, for which the activity change, negative = inhibition was inactive: 10.8%.

As for `O=C(NCCNc1ccc([N+](=O)[O-])cc1C(F)(F)F)c1ccccc1`, the activity change, negative = inhibition is inactive: 5.47%. With `O=C(Nc1c(F)cc(F)cc1Br)c1ccco1`, the activity change, negative = inhibition was inactive: -0.923%.

On to `O=C(NNC(=O)c1cccnc1Cl)c1ccc(F)cc1`, for which the activity change, negative = inhibition was inactive: 0.449%.

In the case of `Cc1ccc(-c2nnc(SC(C)C(=O)NCC3CCCO3)nc2-c2ccc(C)cc2)cc1` (stereo not given), the activity change, negative = inhibition was inactive: 2.1%. Turning to `C[C@H](CO)N1C[C@H](C)[C@H](CN(C)Cc2ccc(Oc3ccccc3)cc2)Oc2ccc(NC(=O)Nc3cccc4ccccc34)cc2CC1=O`, the activity change, negative = inhibition is inactive: -7.19%. Take `Cc1c(C(=O)NCc2cccs2)oc2ccccc12`: the activity change, negative = inhibition is inactive: 4.33%. For the molecule `CCn1c(=O)c(-c2nc3ccccc3[nH]2)c(O)c2ccccc21`, the activity change, negative = inhibition was inactive: -0.309%.

The record behind these values is PubChem BioAssay AID488835 (Broad Institute, 2010).
